Results on one substance are retold here after patent US7083940B2, “Pregnancy-associated plasma protein-A2 (PAPP-A2)” (Como Biotech ApS, priority 2000, dated 2006).

“Also recorded” adds a separate entry of the source.

The data set has as its system IGFBP-5. The data set can be described thus: Cleavage site determination in IGFBP-5 (Edman degradation of digest with purified PAPP-A2). The data set is classed as biochemical, human. The settings on record: purified rIGFBP-5 digested with purified PAPP-A2; sequence analysis. An excerpt:
For cleavage site determination, purified rIGFBP-5 (FIG. 6, lane 7) was digested with purified PAPP-A2 and analyzed by SDS-PAGE (FIG. 6, lane 8). […] The two bands both represent intact C-terminal cleavage fragments, because they also contain the C-terminal c-myc tag (FIG. 6, lane 9); they are likely to be differently glycosylated, in accordance with the heterogeneity of purified rIGFBP-5 (FIG. 6, lane 7). Both bands contained a second sequence at lower level (45%), L(1)GXFVH (SEQ ID NO:24), corresponding to the N-terminal sequence of IGFBP-5. The absence of Ser, expected in the third cycle, was taken as evidence for carbohydrate substitution of Ser-3. O-linked glycan on the N-terminal cleavage fragment is likely to cause it to smear around the two distinct, C-terminal fragments.

Turning to “PAPP-A2: recombinant pregnancy-associated plasma protein-A2, SEQ ID NO:2, metzincin metalloproteinase expressed in 293T cells”, the “Cleavage site in IGFBP-5” value is “between Ser-142 and Lys-143; also recorded: between Ser-143 and Lys-144”.
